Laboratory results from CN115746140A.
These are yes or no findings as the source states them, for the method shown. Some binding calls cover weakened binding; strength is not graded here.

Chains of the proteins cited; added tags and fusions are not shown. Residues count along the entry.
UniProt Q8NBP7, residues 31-692: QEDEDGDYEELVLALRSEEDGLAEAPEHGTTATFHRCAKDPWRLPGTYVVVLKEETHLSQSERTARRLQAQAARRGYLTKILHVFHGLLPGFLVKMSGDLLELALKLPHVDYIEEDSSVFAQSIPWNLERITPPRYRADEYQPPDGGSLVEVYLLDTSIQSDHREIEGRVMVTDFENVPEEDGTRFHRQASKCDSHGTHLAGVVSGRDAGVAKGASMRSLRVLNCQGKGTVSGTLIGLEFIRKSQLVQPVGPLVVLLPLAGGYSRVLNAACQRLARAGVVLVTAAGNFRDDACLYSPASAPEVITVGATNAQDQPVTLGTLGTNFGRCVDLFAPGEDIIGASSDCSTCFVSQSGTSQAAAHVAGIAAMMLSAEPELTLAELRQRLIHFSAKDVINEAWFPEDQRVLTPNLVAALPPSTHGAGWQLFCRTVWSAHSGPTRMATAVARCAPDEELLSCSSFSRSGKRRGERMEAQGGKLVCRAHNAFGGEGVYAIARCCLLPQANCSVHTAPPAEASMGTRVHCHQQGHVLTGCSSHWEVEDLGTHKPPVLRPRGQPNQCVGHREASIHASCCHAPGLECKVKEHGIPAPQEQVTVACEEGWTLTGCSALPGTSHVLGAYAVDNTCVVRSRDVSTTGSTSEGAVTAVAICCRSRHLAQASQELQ

Columns and labels:
[1] = biological target: PCSK9蛋白 (Proprotein convertase subtilisin kexin type 9) (UniProt Q8NBP7); assay: SPR affinity curve (Figure 3)
[2] = biological target: PCSK9蛋白 (Proprotein convertase subtilisin kexin type 9) (UniProt Q8NBP7); assay: indirect phage ELISA of clones after four rounds of panning on coated PCSK9

- binding [1]: binds
- binding [2]: binds
B1: 纳米抗体P2-11D (anti-PCSK9 nanobody P2-11D) (VHH)
VHH: DVQLQESGGGLVQPGGSLRLSCAASGFTFRAYDMGWYRQAPGKQRDLVAVISSSGGTPNYADSVKDRFTISRDNDKNTVYLQMNSLKSEDTALYYCNARWESSAYERDYWGRGTQVTVSS
